From publication PMC11676169

Chains of the proteins cited; added tags and fusions are not shown.
UniProt P12956: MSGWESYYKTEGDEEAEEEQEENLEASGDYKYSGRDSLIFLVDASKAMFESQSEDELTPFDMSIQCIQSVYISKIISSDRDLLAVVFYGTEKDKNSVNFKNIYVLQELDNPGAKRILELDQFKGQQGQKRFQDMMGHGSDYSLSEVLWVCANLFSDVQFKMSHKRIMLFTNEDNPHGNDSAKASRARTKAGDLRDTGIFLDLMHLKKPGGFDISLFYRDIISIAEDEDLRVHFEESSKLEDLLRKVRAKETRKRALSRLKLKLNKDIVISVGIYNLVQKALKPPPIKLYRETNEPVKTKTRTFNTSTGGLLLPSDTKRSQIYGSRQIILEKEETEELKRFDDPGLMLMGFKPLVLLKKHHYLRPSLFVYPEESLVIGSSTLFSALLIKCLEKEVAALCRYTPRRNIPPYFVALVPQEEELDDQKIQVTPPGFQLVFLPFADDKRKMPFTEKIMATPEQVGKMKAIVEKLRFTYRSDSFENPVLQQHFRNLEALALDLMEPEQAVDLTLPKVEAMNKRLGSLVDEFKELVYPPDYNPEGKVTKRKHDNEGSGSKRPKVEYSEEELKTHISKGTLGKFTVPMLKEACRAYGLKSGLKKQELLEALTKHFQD
UniProt P13010: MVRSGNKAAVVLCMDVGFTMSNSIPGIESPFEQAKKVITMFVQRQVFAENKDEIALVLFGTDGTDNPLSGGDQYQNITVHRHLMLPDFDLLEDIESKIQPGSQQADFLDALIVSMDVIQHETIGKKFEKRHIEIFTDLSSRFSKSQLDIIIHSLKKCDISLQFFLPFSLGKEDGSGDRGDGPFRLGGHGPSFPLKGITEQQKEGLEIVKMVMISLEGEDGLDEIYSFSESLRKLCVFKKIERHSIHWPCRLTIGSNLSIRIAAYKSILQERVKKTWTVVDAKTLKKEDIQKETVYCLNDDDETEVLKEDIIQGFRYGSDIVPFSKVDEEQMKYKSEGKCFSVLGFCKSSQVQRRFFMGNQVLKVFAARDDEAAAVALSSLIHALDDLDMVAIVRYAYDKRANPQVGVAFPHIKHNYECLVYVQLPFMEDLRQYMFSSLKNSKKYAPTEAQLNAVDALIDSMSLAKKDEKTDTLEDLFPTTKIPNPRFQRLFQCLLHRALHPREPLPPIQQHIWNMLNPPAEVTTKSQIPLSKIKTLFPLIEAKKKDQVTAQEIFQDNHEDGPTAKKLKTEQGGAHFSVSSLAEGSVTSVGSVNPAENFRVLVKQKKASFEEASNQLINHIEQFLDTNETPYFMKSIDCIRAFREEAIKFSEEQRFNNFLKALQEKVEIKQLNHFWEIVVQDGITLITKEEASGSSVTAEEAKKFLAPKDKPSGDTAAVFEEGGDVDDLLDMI

Biological target: T1, double-tagged BCAT1 (BCAT1 myc-DDK), stably expressed in CUTLL1 T-ALL cells (UniProt P54687)
T1 sequence: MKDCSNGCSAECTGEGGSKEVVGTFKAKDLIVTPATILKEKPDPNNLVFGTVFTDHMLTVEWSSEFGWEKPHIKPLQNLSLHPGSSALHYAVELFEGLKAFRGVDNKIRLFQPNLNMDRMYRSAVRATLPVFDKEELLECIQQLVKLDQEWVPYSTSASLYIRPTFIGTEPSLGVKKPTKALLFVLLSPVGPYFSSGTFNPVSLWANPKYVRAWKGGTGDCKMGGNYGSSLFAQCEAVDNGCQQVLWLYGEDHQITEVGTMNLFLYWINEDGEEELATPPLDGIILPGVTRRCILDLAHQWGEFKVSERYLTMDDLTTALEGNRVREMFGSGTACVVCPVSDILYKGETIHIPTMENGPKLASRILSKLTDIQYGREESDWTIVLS
Test: affinity purification with mass spectrometry; tandem affinity purification from cytoplasmic extracts of CUTLL1 cells expressing BCAT1 myc/DDK (NaCl adjusted to 150 mM): anti-FLAG M2 beads, FLAG peptide elution, then anti-c-Myc beads, c-Myc peptide elution; LC-MS/MS; control: mock-transduced CUTLL1

binding	Substance
binds	KU70 (XRCC6), endogenous in CUTLL1 cells (from UniProt P12956 1-609)
binds	KU80 (XRCC5), endogenous in CUTLL1 cells (from UniProt P13010 1-732)

No constants are given. Whether binding was seen depends on the method and setting. In cells and extracts the contact can be indirect. Here binding means that the protein was enriched with, or labelled near, the bait; the list need not be complete. Tags and fused reporters may be left off the sequences shown.
